Assay results from publication doi:10.1101/2021.02.07.430159.
No constants are given. Whether binding was seen depends on the method and setting.

Molecular target: GST-MLLE protein (MLLE domain of PABPC1)
Experiment: SPR

Binder: SNLNPNAPEAHPGVPWKGLQ [super-PAM2-Phe10Ala peptide]
- binding: no binding
